The nature of this data set: Ratio tolerance / cytotoxic activity (DMT/CI50). To be noted: for DMT/CI50: ratio of DMT and mean CI50 expressed as dimensionless numbers; for DMT/CI50*: ratio relative to a ratio of 1 for ascididémine.

This note sets out measurements from EP1202992B1, “ASCIDIDEMIN DERIVATIVES AND THEIR THERAPEUTIC APPLICATIONS” (CEPHALON FRANCE, priority 1999, dated 2001).

For “2-bromoleptoclinidone [CRL 8269, reference compound]”, the DMT/CI50 is on record as 0,33 and the “DMT/CI50*” value came to 2.

With `O=C1c2nccc(Br)c2-c2nc3ccccc3c3ccnc1c23` [CRL 8248, 5-bromo-9H-quino[4,3,2-de] [1,10]phénantrolin-9-one], the DMT/CI50 is listed as 2,00 and the “DMT/CI50*” value came out at 10.

With `CN(C)c1ccc2nc3c4c(nccc4c2c1)-c1ncccc1C3=O` [CRL 8325, 5-(diméthylamino)-9H-quino[4,3,2-de][1,10]phénanthrolin-9-one], the DMT/CI50 is recorded as 4,32 and the “DMT/CI50*” value was found to be 22.

In the case of `Cc1ccc2nc3c4c(nccc4c2c1)-c1ncccc1C3=O` [CRL 8323, 5-méthyl-9H-quino [4,3,2-de][1,10] phénanthrolin-9-one], the DMT/CI50 is 0,33 and the “DMT/CI50*” value is given as 2.

Turning to “9-H-quino[4,3,2-de][1,10]phénanthrolin-9-one [CRL 8274, reference compound]”, the DMT/CI50 was 0,20 and the “DMT/CI50*” value is listed as 1.

As to “5-(diméthylamino-2-éthyl)amino-9H-quino[4,3,2de][1,10] phénanthrolin-9-one [CRL 8419]”, the DMT/CI50 was 0,67 and the “DMT/CI50*” value is given as 3,3.

Regarding “5-(2-chloroéthyl)amino-9H-quino[4,3,2de][1,10] phénanthrolin-9-one [CRL 8423]”, the DMT/CI50 is 22,86 and the “DMT/CI50*” value came to 114.

For `CN(C)c1ccc2nc3c4c(nccc4c2c1)-c1ncccc1C3=O` [CRL 8407, Chlorhydratede la 5-(diméthylamino)-9H-quino[4,3,2-de][1,10] phénanthrolin-9-one], the DMT/CI50 is recorded as 7,27 and the “DMT/CI50*” value was found to be 36.

Consider “Chlorhydrate de la 5-(diméthylamino-2-éthyl)amino-9H-quino[4,3,2de][1,10] phénanthrolin-9-one [CRL 8418]”, for which the DMT/CI50 was 0,37 and the “DMT/CI50*” value is reported as 2.

Turning to `O=C1c2cccnc2-c2nccc3c2c1nc1ccc(NCc2ccccc2)cc13` [CRL 8241, 5-(benzylamino)-9H-quino[4,3,2-de][1,10] phénanthrolin-9-one], the DMT/CI50 is 1,14 and the “DMT/CI50*” value amounted to 6.

Take `COc1ccc2nc3c4c(nccc4c2c1)-c1ncccc1C3=O` [CRL 8297, 5-méthoxy-9H-quino[4,3,2-de][1,10]phénanthrolin-9-one]: the DMT/CI50 is reported as 1,78 and the “DMT/CI50*” value was determined as 9.

“5-bis(2-chloroéthyl)amino-9H-quino[4,3,2de][1,10] phénanthrolin-9-one [CRL 8422]”: the DMT/CI50 was 1,60 and the “DMT/CI50*” value is given as 8,3.

In the case of `Nc1ccnc2c1-c1nc3ccccc3c3ccnc(c13)C2=O` [CRL 8347, 5-amino-9H-quino[4,3,2-de][1,10]phénanthtolin-9-one], the DMT/CI50 is 7,62 and the “DMT/CI50*” value is recorded as 38.

With `COc1ccnc2c1C(=O)c1nc3ccc(Br)cc3c3ccnc-2c13` [CRL 8389, 5-bromo-10-méthoxy-9H-quino[4,3,2-de][1,10]phénanthrolin-9-one], the DMT/CI50 is 0,38 and the “DMT/CI50*” value came out at 2.

With `O=C1c2cccnc2-c2nccc3c2c1nc1ccc(NCc2ccccc2)cc13` [CRL 8416, Chlorhydratede la 5-(benzylamino)-9H-quino[4,3,2-de][1,10] phénanthrolin-9-one], the DMT/CI50 is 2,00 and the “DMT/CI50*” value was found to be 10.

Regarding “5-chloro-9H-quino [4,3,2-de] [1,10] phénantrolin-9-one [CRL 8301]”, the DMT/CI50 is listed as 0,59 and the “DMT/CI50*” value came out at 3.

In the case of “Chlorhydrate de la 5-amino-9H-quino[4,3,2-de][1,10]phénanthrolin-9-one [CRL 8406]”, the DMT/CI50 was 2,67 and the “DMT/CI50*” value turned out to be 13.
